Laboratory results reported in PubChem BioAssay AID256 (DTP/NCI, 2004).
The list shows only some results of the screen, not a fair sample: it gathers tests that were run many times, whatever their T/C, doses with no T/C, and many T/C values between a quarter and a half above the control. Further doses and runs are listed elsewhere. T/C gives the treated animals as a percentage of the vehicle group. Some doses have a count of surviving animals in place of a T/C: the source files T/C as zero there, which appears to mark a toxic dose or a test without result, not a measured value. Some survivor counts are full or nearly so, which does not show that the dose was tolerated: the source hardly ever lists a survival T/C far under the control, and the zero likely stands for such cases as well. Counts of survivors are from the toxicity check (mostly the fifth day) where no day follows; animals may have died later. Schedule codes are those of the source, read here as Q, the interval in days (D) or hours (H), X, the number of doses. Some entries hold several experiments; the values are given in rising order. For survival time, the PubChem record calls one and a half times the control and up active, and a quarter to a half above the control has no call in these data; cut-offs in other NCI protocols can differ. Counts like (3×) stand for listed records that agree. Some T/C values are followed by the survivors on the day toxicity was checked, most often the fifth; without a count, all were alive then.

Tested on: CD2F1 mice, L1210 leukemia ip, survival T/C
Assay: NCI In Vivo Anticancer Drug Screen. Data for tumor model L1210 Leukemia (intraperitoneal) in CD2F1 (CDF1) mice
Conditions: higher T/C = longer survival
Procedure, shortened: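 Read-out first: treated-group measurement over vehicle-control measurement, expressed as a ratio. Animals bore a transplanted tumor line and were dosed with compound or vehicle.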

[1] = T/C endpoint: mean survival time, dose: 400.0 mg/kg/injection, schedule: Q04DX003 (ip), vehicle: saline with Tween-80
[2] = T/C endpoint: mean survival time, dose: 100.0 mg/kg/injection, schedule: Q01DX001 (ip), vehicle: other
[3] = T/C endpoint: mean survival time, dose: 100.0 mg/kg/injection, schedule: Q04DX002 (ip), vehicle: other

Q: `Cc1c2oc3c(C)ccc(C(=O)NC4C(=O)NC(C(C)C)C(=O)N5CCCC5C(=O)N(C)CC(=O)N(C)C(C(C)C)C(=O)OC4C)c3nc-2c(C(=O)NC2C(=O)NC(C(C)C)C(=O)N3CCCC3C(=O)N(C)CC(=O)N(C)C(C(C)C)C(=O)OC2C)c(N)c1=O` (stereo not given) was tested. Which T/C (T/C endpoint: median survival time, dose: 0.44 mg/kg/injection, schedule: Q01DX009 (ip), vehicle: water, evaluated on day 5) did it give?
A: 139 and 147 % of control

Q: And the T/C (T/C endpoint: median survival time, dose: 0.44 mg/kg/injection, schedule: Q01DX009 (ip), vehicle: water, evaluated on day 31)?
A: 139 and 147 % of control

Q: What about the T/C (T/C endpoint: median survival time, dose: 0.64 mg/kg/injection, schedule: Q01DX009 (ip), vehicle: water, evaluated on day 5) of the same compound?
A: 142 and 146 % of control

Q: What about the T/C (T/C endpoint: median survival time, dose: 0.64 mg/kg/injection, schedule: Q01DX009 (ip), vehicle: water, evaluated on day 31) of the same compound?
A: 142 and 146 % of control

Q: What about the T/C (T/C endpoint: median survival time, dose: 0.66 mg/kg/injection, schedule: Q01DX009 (ip), vehicle: water, evaluated on day 5) of the same compound?
A: 146 and 153 % of control

Q: And the T/C (T/C endpoint: median survival time, dose: 0.66 mg/kg/injection, schedule: Q01DX009 (ip), vehicle: water, evaluated on day 31)?
A: 146 and 153 % of control

Q: What about the T/C (T/C endpoint: median survival time, dose: 0.84 mg/kg/injection, schedule: Q01DX009 (ip), vehicle: water, evaluated on day 5) of the same compound?
A: 142 and 162 % of control

Q: What about the T/C (T/C endpoint: median survival time, dose: 0.84 mg/kg/injection, schedule: Q01DX009 (ip), vehicle: water, evaluated on day 31) of the same compound?
A: 142 and 162 % of control

Q: What about the T/C (T/C endpoint: median survival time, dose: 0.96 mg/kg/injection, schedule: Q01DX009 (ip), vehicle: water, evaluated on day 5) of the same compound?
A: 162 and 168 % of control

Q: What about the T/C (T/C endpoint: median survival time, dose: 0.96 mg/kg/injection, schedule: Q01DX009 (ip), vehicle: water, evaluated on day 31) of the same compound?
A: 162 and 168 % of control

Q: What about the T/C (T/C endpoint: median survival time, dose: 1.26 mg/kg/injection, schedule: Q01DX009 (ip), vehicle: water, evaluated on day 5) of the same compound?
A: 153 % of control (2×)

Q: What about the T/C (T/C endpoint: median survival time, dose: 1.26 mg/kg/injection, schedule: Q01DX009 (ip), vehicle: water, evaluated on day 31) of the same compound?
A: 153 % of control (2×)

Q: `CCOC(=O)Nc1cc(NCc2ccccc2)c(N)c(N)n1` was tested. Which survivor count (T/C endpoint: mean survival time, dose: 400.0 mg/kg/injection, schedule: Q01DX001 (ip), vehicle: saline with Tween-80) did it give?
A: 1 of 6

Q: Which survivor count (T/C endpoint: mean survival time, dose: 200.0 mg/kg/injection, schedule: Q01DX009 (ip), vehicle: other) does the source give for `COc1cc2c(cc1OC)-c1cc(C)c3cc(OC)c(OC)cc3[n+]1CC2` here?
A: 1 of 6

Q: How did the survivor count [1] turn out when `O=C(/C(=N\O)c1ccc(Cl)cc1)c1ccc(Cl)cc1` was run?
A: 0 of 6

Q: How did the T/C (T/C endpoint: median survival time, dose: 50.0 mg/kg/injection, schedule: Q04DX002 (ip), vehicle: water) turn out when `CCC1(OC(=O)CN2CCN(CCCO)CC2)C(=O)OCc2c1cc1n(c2=O)Cc2cc3ccccc3nc2-1` (stereo not given) was run?
A: 128 % of control

Q: What does the source list for `CCOC/C(O)=C(\C#N)c1ccc(Cl)cc1`?
A: survivor count [2]: 3 of 6; T/C [3]: 86 and 95 % of control [5 of 6 alive]; survivor count [3]: 1 of 3 and 4 of 6; survivor count (T/C endpoint: mean survival time, dose: 200.0 mg/kg/injection, schedule: Q04DX002 (ip), vehicle: other): 0 of 3 and 1 of 6; survivor count (T/C endpoint: mean survival time, dose: 400.0 mg/kg/injection, schedule: Q04DX002 (ip), vehicle: other): 0 of 3 and 2 of 6

Q: Which results are given for `CO[C@@]12[C@@H]3N[C@@H]3CN1C1=C(C(=O)C(Nc3nc(C)cs3)=C(C)C1=O)[C@@H]2COC(N)=O`?
A: T/C (T/C endpoint: mean survival time, dose: 3.0 mg/kg/injection, schedule: Q01DX001 (ip), vehicle: water): 127 % of control; T/C (T/C endpoint: mean survival time, dose: 6.0 mg/kg/injection, schedule: Q01DX001 (ip), vehicle: water): 130 % of control; T/C (T/C endpoint: mean survival time, dose: 12.0 mg/kg/injection, schedule: Q01DX001 (ip), vehicle: water, evaluated on day 30): 127 % of control; T/C (T/C endpoint: mean survival time, dose: 12.0 mg/kg/injection, schedule: Q01DX001 (ip), vehicle: water, evaluated on day 35): 128 % of control; survivor count (T/C endpoint: mean survival time, dose: 24.0 mg/kg/injection, schedule: Q01DX001 (ip), vehicle: water): 0 of 6 and 1 of 6

Q: For `CC1(C)C2CCC1(C(=O)O)CC2`, which survivor count [1] is on record?
A: 6 of 6

Q: `CC(C)CC1(C(C)C)C(=O)NC(=S)NC1=O` was tested. Which survivor count (T/C endpoint: mean survival time, dose: 80.0 mg/kg/injection, schedule: Q01DX001 (ip), vehicle: saline) did it give?
A: 0 of 6

Q: `CCOC/C(O)=C(\C#N)c1cccc(Cl)c1` was tested. Which survivor count [2] did it give?
A: 3 of 6

Q: And the survivor count (T/C endpoint: mean survival time, dose: 400.0 mg/kg/injection, schedule: Q01DX001 (ip), vehicle: other)?
A: 0 of 6
